## Primary screen of a compound library

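Whole-cell growth test on Mycobacterium tuberculosis, read after 3 days in glucose-containing 7H9 medium; the read-out is not stated. Concentration: 500 µM. Direction is inferred from retests: higher values go with more growth inhibition. Size under these conditions: about 18,000 compounds, about 1,400 of them at 50% or above in at least one test.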

Values are the deposited “Percent Effect”, in %. The record does not define 0% and 100%; most values in the screen are far below 50% and negative numbers occur (in some assays of this library far below -100). This is an unselected part of the compounds tested.

With CCc1ccc(CN2Cc3cnn(CCO)c3C2)nc1 the screen gave 27.62%. Result for CCCS(=O)(=O)N1CCC(N)CC1 was -2.663%. Result for CN1CCC(CN(C)S(=O)(=O)c2ccccc2)CC1 was 23.45%. With N#Cc1ccc(N2CCN(c3ncccn3)CC2)nc1 the screen gave -7.1%. Result for Cc1ccc2c(OCC(N)=O)cccc2n1 was -0.7019%. With CNC(=O)NC1CCC2(CC1)OCCO2 the screen gave -2.059%. With Cc1c([C@@H]2OCC[C@H]2N)cnn1C the screen gave 6.005%.

CN1CCCCC1CC(=O)NCCc1ccc(O)cc1 (centres undefined) gave -4.048%. Result for CS(=O)(=O)N1CCC(Cc2ccccc2)C1 (centres undefined) was 63.39%. CCNS(=O)(=O)C1CCN(Cc2ccc(C#N)o2)C1 (centres undefined) read 0.05332%. COc1ccccc1CNc1nc(C)n[nH]1 read 4.461%. With N#Cc1ccc(OCC(O)CN2CCSCC2)cc1 (centres undefined) the screen gave -2.224%. With CN(C)C(=O)c1occc1Br the screen gave 8.509%. O=C1CCCN1CCCNS(=O)(=O)c1ccc(Br)s1 gave 56.75%.

With COc1cc2c(cc1CN(C)[C@H]1COC[C@@H]1O)OCO2 the screen gave 13.46%. For CNCC(=O)Nc1ccc(Br)cc1C the result was 48.55%. Result for CC(=O)NC(C)C(=O)N(C)Cc1ccsc1 (centres undefined) was -8.726%. Result for COc1ccnc(CN(CCO)Cc2nccn2C)c1 was 36.93%. Result for O=C(NCc1cccnc1)N1CCc2ccccc2C1 was 36.96%. COc1ccc(N(CC(N)=O)S(C)(=O)=O)cc1OC gave 2.627%. O=C(NCCO)NCc1c(F)cc(Br)cc1F read 20.03%.

For Cc1noc(C)c1S(=O)(=O)NCC1CCCOC1 (centres undefined) the result was 1.546%. For CC(CN)C(=O)Nc1cn[nH]c1 (centres undefined) the result was -1.24%. For CNC(=O)C(C)OC(=O)c1cc(C)cc(C)c1 (centres undefined) the result was 0.3681%. With C1CC2CNCC1O2 the screen gave 4.113%. CC(=O)NCCCOCC1CCCO1 (centres undefined) gave 14.13%. For Cc1nncc(CN)c1C the result was -4.973%. For CC(C)NC(=O)c1cc2c([nH]c1=O)CCCC2 the result was -1.198%.

OCCCN1CCC(=Cc2ccccc2)CC1 read 74.76%. O=C1OCCC12CCNC2 (centres undefined) gave 2.861%. CCc1nccn1-c1ccc(CN)cc1 read 6.755%. Result for Nc1ccc(CNc2nc(C3CC3)ns2)cn1 was 60.16%. Result for CC(=O)Nc1cc(S(=O)(=O)NCCN(C)C)ccc1C was 4.314%. With CO[C@@H]1COCC[C@H]1NC(=O)CCC(F)(F)F the screen gave 24.34%. CN(C)[C@H]1CN(C(=O)CCn2cncn2)C[C@@H]1C1CC1 gave 3.508%.

CCc1ccc(CN(C)C(=O)c2cccn2C)nc1 read 69.97%. CCCn1cc(CNc2nc(C3CC3)no2)cn1 gave 74.4%. With CCC(NC(=O)c1ccc(C)c(O)c1)[C@H]1C[C@H](O)C1 (some centres undefined) the screen gave 7.626%. With CC1Cc2ccccc2N(C(=O)c2csnn2)C1 (centres undefined) the screen gave 56.2%. With O=C(NCCc1noc(C(F)(F)F)n1)c1ccnnc1 the screen gave 44.54%. For Cc1cc(C(=O)Nc2ccc3c(c2)CCN3)n(C)n1 the result was 38.65%. For CC(C)c1nc(CN(C)C(=O)CN2CCOC2=O)cs1 the result was 17.13%.

COCCn1cnnc1CCNc1ncccn1 gave -13.12%. Cc1cc2c(=O)[nH]cnc2cc1F read -7.726%. Clc1ccc2c(c1)CNCCO2 read 45.17%. With CCC(O)CN1CCCN(C2CCOCC2)CC1 (centres undefined) the screen gave 4.191%.

Some entries from above, unchanged:

- CCc1ccc(CN(C)C(=O)c2cccn2C)nc1 | 69.97%
- Nc1ccc(CNc2nc(C3CC3)ns2)cn1 | 60.16%
- CCC(O)CN1CCCN(C2CCOCC2)CC1 (centres undefined) | 4.191%
- CNCC(=O)Nc1ccc(Br)cc1C | 48.55%

From ChEMBL document CHEMBL3988442, “University of Dundee, Small-Polar-MMV Screening Library” (2021).